Some results were stated once for a whole list of compounds, not compound by compound.
B1: Construct GG: SEQ ID NO 817: m IL2-SGG-KLWVLPK-MMPcs1-2x(G4S)-mIL2Ra(1-215)-mu IgG1 Fc (protein)
chain: APTSSSTSSSTAEAQQQQQQQQQQQQHLEQLLMDLQELLSRMENYRNLKLPRMLTFKFYLPKQATELKDLQCLEDELGPLRHVLDLTQSKSFQLEDAENFISNIRVTVVKLKGSDNTFECQFDDESATVVDFLRRWIAFCQSIISTSPQSGGKLWVLPKGPLGVRGGGGGSGGGGSELCLYDPPEVPNATFKALSYKNGTILNCECKRGFRRLKELVYMRCLGNSWSSNCQCTSNSHDKSRKQVTAQLEHQKEQQTTTDMQKPTQSMHQENLTGHCREPPPWKHEDSKRIYHFVEGQSVHYECIPGYKALQRGPAISICKMKCGKTGWTQPQLTCVDEREHHRFLASEESQGSRNSSPESETSCPITTTDFPQPTETTAMTETFVLTMEYKGCKPCICTVPEVSSVFIFPPKPKDVLTITLTPKVTCVVVDISKDDPEVQFSWFVDDVEVHTAQTQPREEQFNSTFRSVSELPIMHQDWLNGKEFKCRVNSAAFPAPIEKTISKTKGRPKAPQVYTIPPPKEQMAKDKVSLTCMITDFFPEDITVEWQWNGQPAENYKNTQPIMDTDGSYFVYSKLNVQKSNWEAGNTFTCSVLHEGLHNHHTEKSLSHSPGK
B2: Construct II: SEQ ID NO 819: m IL2-LHERHLNNN-MMPcs1-2x(G4S)-mIL2Ra(1-215)-mu IgG1 Fc (protein)
chain: APTSSSTSSSTAEAQQQQQQQQQQQQHLEQLLMDLQELLSRMENYRNLKLPRMLTFKFYLPKQATELKDLQCLEDELGPLRHVLDLTQSKSFQLEDAENFISNIRVTVVKLKGSDNTFECQFDDESATVVDFLRRWIAFCQSIISTSPQSLHERHLNNNGPLGVRGGGGGSGGGGSELCLYDPPEVPNATFKALSYKNGTILNCECKRGFRRLKELVYMRCLGNSWSSNCQCTSNSHDKSRKQVTAQLEHQKEQQTTTDMQKPTQSMHQENLTGHCREPPPWKHEDSKRIYHFVEGQSVHYECIPGYKALQRGPAISICKMKCGKTGWTQPQLTCVDEREHHRFLASEESQGSRNSSPESETSCPITTTDFPQPTETTAMTETFVLTMEYKGCKPCICTVPEVSSVFIFPPKPKDVLTITLTPKVTCVVVDISKDDPEVQFSWFVDDVEVHTAQTQPREEQFNSTFRSVSELPIMHQDWLNGKEFKCRVNSAAFPAPIEKTISKTKGRPKAPQVYTIPPPKEQMAKDKVSLTCMITDFFPEDITVEWQWNGQPAENYKNTQPIMDTDGSYFVYSKLNVQKSNWEAGNTFTCSVLHEGLHNHHTEKSLSHSPGK

Test system: collagen
Experiment: IL-2 fusion protein collagen-agarose pulldown (immunoblot quantitation)
Format: binding
Conditions: fraction bound to collagen-agarose
Method: To test binding to collagen, a pulldown assay using agarose cross-linked to collagen (Sigma) was performed. IL-2 fusion proteins were incubated with collagen-agarose or control agarose beads for 18-22 h at 4C with gentle rotation in 1% BSA/PBS-0.05% Tween 20. After washing, proteins bound to the beads were eluted by resuspending beads in SDS sample buffer (Life Technologies). Bound proteins were then separated by SDS-PAGE on 4-12% BisTris gradient gel followed by immunoblotting with goat anti-mouse IL-2 polyclonal antibody (AF-402-NA; R&D systems). Donkey Anti-goat RP-conjugated antibody was used for detection (Jackson Immuno Research, West Grove, PA) and the blot was developed using the SuperSignal West Femto Maximum sensitivity detection reagent (ThermoFisher) following the manufacturer's recommendations.

Row | Molecule | Bound (% input) [%]
1 | B1 | < 1
2 | B2 | < 1

Source: US20240043489A1, “Cytokine Prodrugs Comprising a Cleavable Linker” (Trutino Biosciences Inc., priority 2020, published 2024)
